Compound in the assay: CCc1cnccc1C(=O)Nc1cc2c(cc1F)NC(=O)CC2
Put plainly: melting temperature shift (DMSO Tm minus MBE1-treated Tm) in cellular thermal proteome profiling; higher = less thermal stabilization by MBE1 (negative = stabilized by MBE1). The conditions noted are these: A375.

Chains of the proteins cited; added tags and fusions are not shown. Lines headed by an entry give the natural chain unless they say otherwise; changes in a name come on top.
UniProt Q6P2C8: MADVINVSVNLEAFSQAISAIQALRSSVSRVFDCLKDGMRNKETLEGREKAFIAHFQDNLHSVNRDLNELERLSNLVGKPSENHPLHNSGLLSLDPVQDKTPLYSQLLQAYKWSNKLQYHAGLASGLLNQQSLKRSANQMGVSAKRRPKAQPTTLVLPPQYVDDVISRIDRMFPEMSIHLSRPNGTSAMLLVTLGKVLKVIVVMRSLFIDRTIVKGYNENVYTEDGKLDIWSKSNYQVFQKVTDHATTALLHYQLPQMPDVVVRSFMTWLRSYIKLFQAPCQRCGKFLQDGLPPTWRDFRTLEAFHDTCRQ
UniProt Q5T7V8: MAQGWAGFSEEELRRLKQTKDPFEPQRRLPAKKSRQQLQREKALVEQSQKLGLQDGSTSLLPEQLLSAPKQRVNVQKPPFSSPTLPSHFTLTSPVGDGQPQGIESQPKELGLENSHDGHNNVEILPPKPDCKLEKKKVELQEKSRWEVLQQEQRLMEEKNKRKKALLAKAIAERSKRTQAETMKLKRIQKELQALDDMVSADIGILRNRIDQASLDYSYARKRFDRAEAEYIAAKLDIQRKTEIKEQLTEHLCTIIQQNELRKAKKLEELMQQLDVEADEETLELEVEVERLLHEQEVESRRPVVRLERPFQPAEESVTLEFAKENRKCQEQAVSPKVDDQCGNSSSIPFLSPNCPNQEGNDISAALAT
UniProt Q6KCM7: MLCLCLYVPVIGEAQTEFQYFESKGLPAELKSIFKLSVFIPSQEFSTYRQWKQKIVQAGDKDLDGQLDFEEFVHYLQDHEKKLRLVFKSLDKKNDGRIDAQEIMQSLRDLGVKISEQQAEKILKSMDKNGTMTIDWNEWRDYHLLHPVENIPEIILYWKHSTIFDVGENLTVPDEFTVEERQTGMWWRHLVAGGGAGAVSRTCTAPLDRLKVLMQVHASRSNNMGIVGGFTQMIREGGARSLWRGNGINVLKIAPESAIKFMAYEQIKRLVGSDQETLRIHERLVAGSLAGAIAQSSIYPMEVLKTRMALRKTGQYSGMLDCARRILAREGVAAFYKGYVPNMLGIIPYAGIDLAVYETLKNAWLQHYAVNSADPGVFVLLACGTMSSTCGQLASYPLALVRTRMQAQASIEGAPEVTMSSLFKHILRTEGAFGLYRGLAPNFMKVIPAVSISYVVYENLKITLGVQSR
UniProt Q6NSJ2: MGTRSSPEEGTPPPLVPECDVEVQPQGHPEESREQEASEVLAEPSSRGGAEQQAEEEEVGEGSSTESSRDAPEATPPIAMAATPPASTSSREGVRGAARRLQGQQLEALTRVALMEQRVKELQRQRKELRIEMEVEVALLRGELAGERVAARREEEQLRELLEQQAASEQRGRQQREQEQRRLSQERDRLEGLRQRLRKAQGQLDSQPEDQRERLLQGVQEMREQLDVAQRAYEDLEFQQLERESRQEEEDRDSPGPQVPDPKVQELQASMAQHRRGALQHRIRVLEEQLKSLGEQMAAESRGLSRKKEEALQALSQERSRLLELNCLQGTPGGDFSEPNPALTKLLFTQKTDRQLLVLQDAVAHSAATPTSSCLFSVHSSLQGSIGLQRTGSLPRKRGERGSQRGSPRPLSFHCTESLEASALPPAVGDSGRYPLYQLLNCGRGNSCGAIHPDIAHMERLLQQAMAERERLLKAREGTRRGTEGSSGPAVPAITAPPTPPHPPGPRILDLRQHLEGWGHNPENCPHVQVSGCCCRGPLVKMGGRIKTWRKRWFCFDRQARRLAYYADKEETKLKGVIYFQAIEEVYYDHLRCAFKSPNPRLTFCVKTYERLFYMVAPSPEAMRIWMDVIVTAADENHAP
UniProt Q68DQ2: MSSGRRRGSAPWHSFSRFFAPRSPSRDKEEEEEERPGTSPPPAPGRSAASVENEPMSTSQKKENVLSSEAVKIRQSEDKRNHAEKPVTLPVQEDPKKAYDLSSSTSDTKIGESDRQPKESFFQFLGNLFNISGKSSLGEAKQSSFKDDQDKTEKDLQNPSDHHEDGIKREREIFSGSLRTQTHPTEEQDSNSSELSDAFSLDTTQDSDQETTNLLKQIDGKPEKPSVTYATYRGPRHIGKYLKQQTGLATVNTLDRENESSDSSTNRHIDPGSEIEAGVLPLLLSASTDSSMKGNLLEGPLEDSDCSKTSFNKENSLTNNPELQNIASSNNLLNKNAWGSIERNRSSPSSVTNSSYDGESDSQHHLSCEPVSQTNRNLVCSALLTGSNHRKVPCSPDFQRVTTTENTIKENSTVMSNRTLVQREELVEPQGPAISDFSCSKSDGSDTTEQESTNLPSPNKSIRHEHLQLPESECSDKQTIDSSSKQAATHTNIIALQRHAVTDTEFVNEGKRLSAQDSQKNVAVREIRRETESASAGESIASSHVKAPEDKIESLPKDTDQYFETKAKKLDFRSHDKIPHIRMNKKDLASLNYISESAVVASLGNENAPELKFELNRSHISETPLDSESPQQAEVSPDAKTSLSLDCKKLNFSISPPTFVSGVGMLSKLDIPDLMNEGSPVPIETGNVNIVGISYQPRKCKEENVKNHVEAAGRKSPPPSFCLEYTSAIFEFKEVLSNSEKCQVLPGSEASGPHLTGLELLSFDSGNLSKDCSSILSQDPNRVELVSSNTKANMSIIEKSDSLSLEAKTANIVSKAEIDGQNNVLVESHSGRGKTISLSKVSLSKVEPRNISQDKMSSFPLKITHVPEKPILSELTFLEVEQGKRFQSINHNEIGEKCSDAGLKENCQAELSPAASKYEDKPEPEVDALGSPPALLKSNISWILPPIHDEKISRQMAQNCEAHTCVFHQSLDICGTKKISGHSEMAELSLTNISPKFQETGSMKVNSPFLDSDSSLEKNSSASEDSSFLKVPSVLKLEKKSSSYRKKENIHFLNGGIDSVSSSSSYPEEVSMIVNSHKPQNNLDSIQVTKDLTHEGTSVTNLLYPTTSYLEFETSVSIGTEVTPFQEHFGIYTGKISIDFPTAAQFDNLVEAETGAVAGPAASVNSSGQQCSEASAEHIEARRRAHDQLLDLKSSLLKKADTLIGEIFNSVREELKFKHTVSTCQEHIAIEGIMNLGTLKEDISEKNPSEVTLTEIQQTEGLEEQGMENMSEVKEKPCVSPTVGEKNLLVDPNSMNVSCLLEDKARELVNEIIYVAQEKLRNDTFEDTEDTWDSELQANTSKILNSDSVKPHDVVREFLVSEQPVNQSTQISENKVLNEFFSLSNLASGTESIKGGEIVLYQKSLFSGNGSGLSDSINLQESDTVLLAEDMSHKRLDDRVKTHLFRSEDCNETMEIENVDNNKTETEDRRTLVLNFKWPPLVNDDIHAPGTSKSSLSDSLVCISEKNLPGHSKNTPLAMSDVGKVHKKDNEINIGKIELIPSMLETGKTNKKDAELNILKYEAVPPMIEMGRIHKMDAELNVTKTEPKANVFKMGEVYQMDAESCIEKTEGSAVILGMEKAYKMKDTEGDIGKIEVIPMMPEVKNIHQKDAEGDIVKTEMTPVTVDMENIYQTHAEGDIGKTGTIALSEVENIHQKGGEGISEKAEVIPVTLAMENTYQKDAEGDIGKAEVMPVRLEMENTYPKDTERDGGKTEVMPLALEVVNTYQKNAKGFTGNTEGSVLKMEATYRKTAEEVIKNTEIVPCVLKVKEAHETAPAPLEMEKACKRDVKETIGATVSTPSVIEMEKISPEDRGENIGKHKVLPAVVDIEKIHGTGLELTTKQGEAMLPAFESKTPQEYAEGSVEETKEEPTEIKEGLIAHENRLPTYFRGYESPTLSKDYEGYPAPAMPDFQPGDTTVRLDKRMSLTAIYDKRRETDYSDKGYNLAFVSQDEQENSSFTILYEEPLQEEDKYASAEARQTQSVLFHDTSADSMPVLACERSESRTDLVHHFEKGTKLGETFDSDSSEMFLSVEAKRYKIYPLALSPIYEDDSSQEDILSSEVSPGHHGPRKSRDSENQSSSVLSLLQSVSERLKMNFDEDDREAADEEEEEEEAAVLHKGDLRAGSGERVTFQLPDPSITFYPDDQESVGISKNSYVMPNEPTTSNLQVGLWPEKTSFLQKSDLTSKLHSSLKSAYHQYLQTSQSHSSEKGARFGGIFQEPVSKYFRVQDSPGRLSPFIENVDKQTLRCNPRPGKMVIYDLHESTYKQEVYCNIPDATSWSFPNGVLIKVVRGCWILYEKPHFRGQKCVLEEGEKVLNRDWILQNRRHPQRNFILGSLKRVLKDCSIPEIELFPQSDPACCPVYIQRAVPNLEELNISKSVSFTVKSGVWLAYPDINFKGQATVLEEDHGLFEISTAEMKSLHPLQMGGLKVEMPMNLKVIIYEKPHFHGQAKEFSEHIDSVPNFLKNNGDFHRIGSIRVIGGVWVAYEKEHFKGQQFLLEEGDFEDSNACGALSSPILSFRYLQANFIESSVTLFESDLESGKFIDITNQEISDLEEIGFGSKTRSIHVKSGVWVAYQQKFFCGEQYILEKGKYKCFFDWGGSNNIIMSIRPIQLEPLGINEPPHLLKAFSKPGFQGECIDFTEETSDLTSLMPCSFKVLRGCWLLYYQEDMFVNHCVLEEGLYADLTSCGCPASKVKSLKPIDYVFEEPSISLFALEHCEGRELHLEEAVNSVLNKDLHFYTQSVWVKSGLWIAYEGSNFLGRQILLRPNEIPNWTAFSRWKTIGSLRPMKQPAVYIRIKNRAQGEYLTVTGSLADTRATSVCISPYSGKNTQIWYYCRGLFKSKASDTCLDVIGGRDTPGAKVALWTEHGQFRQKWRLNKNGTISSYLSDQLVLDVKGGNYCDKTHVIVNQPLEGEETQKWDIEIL
UniProt Q68CP4: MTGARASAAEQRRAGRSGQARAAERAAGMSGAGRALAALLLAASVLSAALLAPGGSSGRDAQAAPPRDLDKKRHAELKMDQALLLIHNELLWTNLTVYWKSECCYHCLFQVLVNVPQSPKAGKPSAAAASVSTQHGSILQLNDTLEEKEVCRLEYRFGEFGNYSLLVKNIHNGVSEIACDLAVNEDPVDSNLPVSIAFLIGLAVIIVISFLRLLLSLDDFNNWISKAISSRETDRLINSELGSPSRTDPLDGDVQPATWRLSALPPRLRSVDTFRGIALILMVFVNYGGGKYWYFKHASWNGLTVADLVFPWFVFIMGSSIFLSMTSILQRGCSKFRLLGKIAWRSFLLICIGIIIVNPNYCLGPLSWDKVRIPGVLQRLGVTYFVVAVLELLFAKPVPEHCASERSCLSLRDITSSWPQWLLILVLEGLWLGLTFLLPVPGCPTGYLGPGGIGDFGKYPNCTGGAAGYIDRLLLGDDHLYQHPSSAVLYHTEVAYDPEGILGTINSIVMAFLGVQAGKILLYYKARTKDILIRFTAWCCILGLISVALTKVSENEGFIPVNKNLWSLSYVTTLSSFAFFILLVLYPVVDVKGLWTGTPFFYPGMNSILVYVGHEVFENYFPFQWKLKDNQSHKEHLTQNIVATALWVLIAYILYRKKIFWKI
UniProt Q5VTL8: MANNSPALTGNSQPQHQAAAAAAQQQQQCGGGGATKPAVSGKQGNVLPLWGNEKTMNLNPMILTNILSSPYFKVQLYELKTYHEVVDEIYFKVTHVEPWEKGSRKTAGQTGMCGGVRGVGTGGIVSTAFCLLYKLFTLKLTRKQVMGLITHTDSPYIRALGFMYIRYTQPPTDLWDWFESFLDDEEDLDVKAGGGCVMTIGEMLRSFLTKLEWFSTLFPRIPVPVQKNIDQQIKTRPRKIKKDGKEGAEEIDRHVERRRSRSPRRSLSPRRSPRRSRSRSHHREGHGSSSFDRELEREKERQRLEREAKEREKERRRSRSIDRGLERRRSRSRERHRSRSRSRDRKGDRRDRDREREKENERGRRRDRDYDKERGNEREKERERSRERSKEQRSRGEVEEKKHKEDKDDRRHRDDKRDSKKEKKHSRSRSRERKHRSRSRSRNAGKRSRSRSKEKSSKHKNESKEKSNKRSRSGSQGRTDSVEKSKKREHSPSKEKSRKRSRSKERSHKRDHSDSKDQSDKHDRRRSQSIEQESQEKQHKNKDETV
UniProt Q5JTJ3: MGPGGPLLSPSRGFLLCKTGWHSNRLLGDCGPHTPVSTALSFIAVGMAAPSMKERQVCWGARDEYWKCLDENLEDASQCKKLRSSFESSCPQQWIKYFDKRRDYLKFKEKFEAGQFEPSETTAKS
UniProt Q5JVF3: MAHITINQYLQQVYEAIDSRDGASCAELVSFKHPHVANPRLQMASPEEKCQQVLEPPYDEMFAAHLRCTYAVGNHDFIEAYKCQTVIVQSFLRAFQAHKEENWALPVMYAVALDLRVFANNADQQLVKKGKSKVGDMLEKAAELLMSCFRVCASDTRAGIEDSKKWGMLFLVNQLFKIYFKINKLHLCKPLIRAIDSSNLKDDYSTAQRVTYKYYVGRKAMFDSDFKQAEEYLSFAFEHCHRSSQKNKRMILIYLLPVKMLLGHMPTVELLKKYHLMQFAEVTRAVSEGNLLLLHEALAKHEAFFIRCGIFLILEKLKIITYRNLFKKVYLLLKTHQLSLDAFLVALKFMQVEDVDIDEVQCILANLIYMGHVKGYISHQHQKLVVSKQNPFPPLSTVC

The results in this text go back to the supplement of paper PMC12595434, “Development of retinoid nuclear receptor pathway antagonists through targeting aldehyde dehydrogenase 1A3” (iScience, 2025).

This is one part of the list. Single values of this set are uncertain.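 Tm was set to 64 °C where no melting was found, and many curves are irregular.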

For TBCEL (UniProt Q5QJ74), the melting temperature shift by setting is: (MBE1 concentration: 100 nM) -0.376 °C; (MBE1 concentration: 1 uM) -0.838 °C.
The like results for PRRC2B (UniProt Q5JSZ5) were, in that order, -2.83 °C and 0.44 °C.
For CEP170 (UniProt Q5SW79) the same measures were 0.311 °C and 0.116 °C.
The like results for UniProt Q5SZL2 were, in that order, -1.8 °C and 3.09 °C.
As for UniProt Q5XKP0, the melting temperature shift reads like this: (MBE1 concentration: 100 nM) -0.336 °C; (MBE1 concentration: 1 uM) 2.32 °C.
For UniProt Q5HYA8 the same measures were -0.389 °C and -0.107 °C.
For CDC42BPA (UniProt Q5VT25) the same measures were 1.03 °C and 0.336 °C.
The like results for MED27 (UniProt Q6P2C8) were, in that order, -1.86 °C and -2.21 °C.
For the target ZMYM4 (UniProt Q5VZL5), the melting temperature shift (MBE1 concentration: 100 nM) is -0.179 °C and the melting temperature shift (MBE1 concentration: 1 uM) is -0.679 °C.
The like results for VPS13D (UniProt Q5THJ4) were, in that order, 0.26 °C and 0.443 °C.
For KANK2 (UniProt Q63ZY3) the same measures were -0.752 °C and 0.0128 °C.
For RILPL1 (UniProt Q5EBL4) the same measures were -0.616 °C and -1.3 °C.
Consider GORAB (UniProt Q5T7V8), for which the melting temperature shift (MBE1 concentration: 100 nM) was -0.214 °C and the melting temperature shift (MBE1 concentration: 1 uM) is -1.37 °C.
For the target UniProt Q6KCM7, the melting temperature shift was -0.288 °C (MBE1 concentration: 100 nM) and 0.525 °C (MBE1 concentration: 1 uM).
For the target PPP4R3B (UniProt Q5MIZ7), the melting temperature shift was -0.165 °C (MBE1 concentration: 100 nM) and -0.118 °C (MBE1 concentration: 1 uM).
For RINT1 (UniProt Q6NUQ1) the same measures were -1.04 °C and -0.536 °C.
The like results for HEATR6 (UniProt Q6AI08) were, in that order, 0.983 °C and 0.818 °C.
For OTUD7B (UniProt Q6GQQ9) the same measures were -0.273 °C and -0.24 °C.
Turning to ELP2 (UniProt Q6IA86), the melting temperature shift (MBE1 concentration: 100 nM) is -0.238 °C and the melting temperature shift (MBE1 concentration: 1 uM) was -0.316 °C.
UniProt Q6NSJ2: the melting temperature shift runs as follows: (MBE1 concentration: 100 nM) -0.231 °C; (MBE1 concentration: 1 uM) -0.945 °C.
With SPECC1 (UniProt Q5M775), the melting temperature shift is, setting by setting: (MBE1 concentration: 100 nM) 0.94 °C; (MBE1 concentration: 1 uM) -0.885 °C.
Take ARMC6 (UniProt Q6NXE6): the melting temperature shift runs as follows: (MBE1 concentration: 100 nM) -0.115 °C; (MBE1 concentration: 1 uM) 0 °C.
For CRYBG3 (UniProt Q68DQ2) the same measures were -0.616 °C and -0.701 °C.
For UniProt Q6BCY4 the same measures were -0.201 °C and -0.912 °C.
For YOD1 (UniProt Q5VVQ6) the same measures were 0.546 °C and 0.495 °C.
For the target TJAP1 (UniProt Q5JTD0), the melting temperature shift by setting is: (MBE1 concentration: 100 nM) 0.183 °C; (MBE1 concentration: 1 uM) 1.11 °C.
For RARS2 (UniProt Q5T160) the same measures were 0.513 °C and 0.391 °C.
For ARHGAP21 (UniProt Q5T5U3) the same measures were -0.696 °C and -1.44 °C.
The like results for PRPF8 (UniProt Q6P2Q9) were, in that order, 0.324 °C and 0.134 °C.
With CDC73 (UniProt Q6P1J9), the melting temperature shift reads like this: (MBE1 concentration: 100 nM) -0.102 °C; (MBE1 concentration: 1 uM) -0.192 °C.
For ATPAF1 (UniProt Q5TC12) the same measures were 1.78 °C and 1.2 °C.
For TTC27 (UniProt Q6P3X3) the same measures were -1 °C and -0.389 °C.
The like results for UniProt Q6NSZ9 were, in that order, 0.349 °C and 0.318 °C.
Turning to ATAD3B (UniProt Q5T9A4), the melting temperature shift runs as follows: (MBE1 concentration: 100 nM) -0.0988 °C; (MBE1 concentration: 1 uM) -0.0988 °C.
In the case of ANGEL2 (UniProt Q5VTE6), the melting temperature shift is 0.183 °C (MBE1 concentration: 100 nM) and -1.77 °C (MBE1 concentration: 1 uM).
The like results for HP1BP3 (UniProt Q5SSJ5) were, in that order, 0.867 °C and 0.0183 °C.
Regarding THEM4 (UniProt Q5T1C6), the melting temperature shift is -0.796 °C (MBE1 concentration: 100 nM) and -0.0366 °C (MBE1 concentration: 1 uM).
UniProt Q68CP4: the melting temperature shift was -0.19 °C (MBE1 concentration: 100 nM) and -4.84 °C (MBE1 concentration: 1 uM).
The like results for UniProt Q69YH5 were, in that order, 0.452 °C and 0.537 °C.
ATG16L1 (UniProt Q676U5): the melting temperature shift is, setting by setting: (MBE1 concentration: 100 nM) -0.912 °C; (MBE1 concentration: 1 uM) -0.00671 °C.
For PRPF38B (UniProt Q5VTL8) the same measures were 0.127 °C and -1.41 °C.
As for COA6 (UniProt Q5JTJ3), the melting temperature shift was 1.17 °C (MBE1 concentration: 100 nM) and -0.0916 °C (MBE1 concentration: 1 uM).
The like results for RNF20 (UniProt Q5VTR2) were, in that order, -0.397 °C and -0.455 °C.
The like results for UniProt Q6P3S6 were, in that order, -2.05 °C and 0.288 °C.
The like results for DENND4C (UniProt Q5VZ89) were, in that order, 0.885 °C and 0.0794 °C.
Regarding SPRYD7 (UniProt Q5W111), the melting temperature shift was 0.215 °C (MBE1 concentration: 100 nM) and -0.188 °C (MBE1 concentration: 1 uM).
The like results for MAST2 (UniProt Q6P0Q8) were, in that order, -1.59 °C and -1.96 °C.
For DIEXF (UniProt Q68CQ4) the same measures were -0.16 °C and -0.147 °C.
The like results for PCID2 (UniProt Q5JVF3) were, in that order, -0.856 °C and 0.118 °C.
As to SDE2 (UniProt Q6IQ49), the melting temperature shift is, setting by setting: (MBE1 concentration: 100 nM) -0.868 °C; (MBE1 concentration: 1 uM) 0.635 °C.
